± gives the standard deviation of the averaged measurements. This is one part of the list.
tested on: Madurella mycetomatis MM55; assay: metabolic activity (growth) relative to DMSO growth control; higher = more fungal growth; details: 10 µM

SMILES | metabolic activity [%]
Cn1ccc(-c2cccc(Nc3ccnc4cc(-c5nccs5)ccc34)c2)n1 | 90.3 ± 1.8
Nc1n[nH]c2cc(-c3cnn(Cc4ccccc4)c3)ccc12 | 92 ± 10
COc1cc(-c2cncc(-c3cnn(C4CCNCC4)c3)c2)cc(OC)c1OC | 117 ± 22
CNCc1ccc(-c2cc(-c3nc(-c4ccc(S(=O)(=O)C(C)C)cc4)cnc3N)on2)cc1 | 92.7 ± 10
CCCNC(=O)c1ccc(Nc2ncc(C(F)(F)F)c(Nc3ccccc3C(C)=O)n2)c(Br)c1 | 112 ± 1.8
COCCOCCOc1cc2c(cc1OC)NC(=O)c1ccc(-c3ccc([N+](=O)[O-])c(OC)c3)cc1N2 | 84.4 ± 18
COc1ncccc1-c1cnn2ccc(N3CCN4C(=O)NCC4C3)nc12 (centres undefined) | 97.3 ± 3.3
CCc1c(-c2ccc(C(C)(C)O)cc2)[nH]c2nc(C)c3cncn3c12 | 88.7 ± 21
COc1ccc(COc2ccc(Cc3cnc(N)nc3N)cc2OC)cc1 | 78.5 ± 35
Cc1ccc(-n2c(=O)c3cnc(Nc4ccc(N5CCN(C)CC5)cc4)nc3n3ccnc23)c(Cl)c1.O=C(O)C(F)(F)F.O=C(O)C(F)(F)F | 83.1 ± 33
CC(C)c1cc(-c2ccc3c(N)n[nH]c3c2)nc(N)n1 | 117 ± 7.7
CC(C)(C)c1cnc(CSc2cnc(NC(=O)C3CCOCC3)s2)o1 | 67.2 ± 3.4
CCS(=O)(=O)Nc1cccc(Oc2cc(F)cc(Nc3ccc(I)cc3F)c2NS(=O)(=O)C2CC2)c1 | 111 ± 30
Cc1ccc(-c2cc(-c3c[nH]nc3-c3ccccn3)ccn2)cc1 | 80.3 ± 21

A run of entries from further up, as a working copy:
SMILES | metabolic activity [%]
COc1ncccc1-c1cnn2ccc(N3CCN4C(=O)NCC4C3)nc12 (centres undefined) | 97.3 ± 3.3
CCc1c(-c2ccc(C(C)(C)O)cc2)[nH]c2nc(C)c3cncn3c12 | 88.7 ± 21

— the supplement of paper PMC12425257
